Experimental data from publication PMC7862231.
No constants are given. Whether binding was seen depends on the method and setting. Binding seen in cells or lysates may run through a third protein. Here binding means that the protein was enriched with, or labelled near, the bait; the list need not be complete.

Target: T1, Mxi1, bait of the tandem affinity purification (human) (UniProt P50539)
T1 sequence: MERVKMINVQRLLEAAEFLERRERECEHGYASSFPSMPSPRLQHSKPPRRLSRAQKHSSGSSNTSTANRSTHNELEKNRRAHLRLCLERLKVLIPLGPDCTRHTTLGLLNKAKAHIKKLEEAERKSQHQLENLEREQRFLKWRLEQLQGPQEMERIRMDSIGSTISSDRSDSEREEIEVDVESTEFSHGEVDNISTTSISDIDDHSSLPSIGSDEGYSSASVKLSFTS
Test: affinity purification with mass spectrometry; tandem affinity purification/MS analysis to identify Mxi1-binding proteins, conducted previously (ref. 20); hit shown in Supplementary Fig. 1

binding: binds
B1: UBE2O found in the tandem affinity purification of Mxi1 (enzyme, UniProt Q9C0C9 1-1292)
chain: MADPAAPTPAAPAPAQAPAPAPEAVPAPAAAPVPAPAPASDSASGPSSDSGPEAGSQRLLFSHDLVSGRYRGSVHFGLVRLIHGEDSDSEGEEEGRGSSGCSEAGGAGHEEGRASPLRRGYVRVQWYPEGVKQHVKETKLKLEDRSVVPRDVVRHMRSTDSQCGTVIDVNIDCAVKLIGTNCIIYPVNSKDLQHIWPFMYGDYIAYDCWLGKVYDLKNQIILKLSNGARCSMNTEDGAKLYDVCPHVSDSGLFFDDSYGFYPGQVLIGPAKIFSSVQWLSGVKPVLSTKSKFRVVVEEVQVVELKVTWITKSFCPGGTDSVSPPPSVITQENLGRVKRLGCFDHAQRQLGERCLYVFPAKVEPAKIAWECPEKNCAQGEGSMAKKVKRLLKKQVVRIMSCSPDTQCSRDHSMEDPDKKGESKTKSEAESASPEETPDGSASPVEMQDEGAEEPHEAGEQLPPFLLKEGRDDRLHSAEQDADDEAADDTDDTSSVTSSASSTTSSQSGSGTSRKKSIPLSIKNLKRKHKRKKNKITRDFKPGDRVAVEVVTTMTSADVMWQDGSVECNIRSNDLFPVHHLDNNEFCPGDFVVDKRVQSCPDPAVYGVVQSGDHIGRTCMVKWFKLRPSGDDVELIGEEEDVSVYDIADHPDFRFRTTDIVIRIGNTEDGAPHKEDEPSVGQVARVDVSSKVEVVWADNSKTIILPQHLYNIESEIEESDYDSVEGSTSGASSDEWEDDSDSWETDNGLVEDEHPKIEEPPIPPLEQPVAPEDKGVVISEEAATAAVQGAVAMAAPMAGLMEKAGKDGPPKSFRELKEAIKILESLKNMTVEQLLTGSPTSPTVEPEKPTREKKFLDDIKKLQENLKKTLDNVAIVEEEKMEAVPDVERKEDKPEGQSPVKAEWPSETPVLCQQCGGKPGVTFTSAKGEVFSVLEFAPSNHSFKKIEFQPPEAKKFFSTVRKEMALLATSLPEGIMVKTFEDRMDLFSALIKGPTRTPYEDGLYLFDIQLPNIYPAVPPHFCYLSQCSGRLNPNLYDNGKVCVSLLGTWIGKGTERWTSKSSLLQVLISIQGLILVNEPYYNEAGFDSDRGLQEGYENSRCYNEMALIRVVQSMTQLVRRPPEVFEQEIRQHFSTGGWRLVNRIESWLETHALLEKAQALPNGVPKASSSPEPPAVAELSDSGQQEPEDGGPAPGEASQGSDSEGGAQGLASASRDHTDQTSETAPDASVPPSVKPKKRRKSYRSFLPEKSGYPDIGFPLFPLSKGFIKSIRGVLTQFRAALLEAGMPECTEDK
